Experimental data: PubChem BioAssay AID493246 (Drosophila RNAi Screening Center, 2011)
In all, the deposit lists about 21,000 reagents; this is an unselected part of those with a known target gene and a result. In the full data, 429 (2%) were called active. 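Values are raw and not normalised between plates; calls rest on per-plate z-scores that were not deposited.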 Not stated in the record: the amount of reagent, the time to read-out.

Test: 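Identify essential fly genes by loss of cell viability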 (primary screen)
Cells: Drosophila Kc and S2R+ cells
Knock-down reagent: long dsRNA against Drosophila genes
Detection: 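Raw, unnormalised count of remaining cells in each well; per-plate z-scores of cell number underlie the calls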
Reading the numbers: Kc cell number and S2R+ cell number: higher = more cells remaining
Rule for the call: 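Active when the per-plate z-score of cell number is 3 or more in the direction of fewer cells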

gene knocked down	amplicon	Kc cell number, rep 1	Kc cell number, rep 2	S2R+ cell number, rep 1	S2R+ cell number, rep 2	Outcome
Uba3 (GeneID 36539)	DRSC06377	1.28e6	1.36e6	1.05e6	1.13e6	inactive
Tehao (GeneID 34761)	DRSC03449	1.60e6	1.58e6	1.38e6	1.53e6	inactive
CG14153 (GeneID 39208)	DRSC10155	1.41e6	1.55e6	1.25e6	1.36e6	inactive
CG13055 (GeneID 39779)	DRSC09936	1.33e6	1.41e6	1.22e6	1.33e6	inactive
CG34433 (GeneID 5740702)	DRSC15077	1.46e6	1.45e6	1.01e6	1.06e6	inactive
Hibch (GeneID 41869)	DRSC15705	1.66e6	1.57e6	1.23e6	1.40e6	inactive
PGRP-SC1b (GeneID 35861)	DRSC07215	1.39e6	1.43e6	1.22e6	1.28e6	inactive
Mybbp1A (GeneID 31010)	DRSC18788	5.21e5		8.59e5		inactive
CG11694 (GeneID 40985)	DRSC14354	1.81e6	1.90e6	1.39e6	1.57e6	inactive
Gpo1 (GeneID 47611)	DRSC07128	1.37e6	1.41e6	1.10e6	1.16e6	inactive
CG31493 (GeneID 318765)	DRSC12583	1.74e6	1.66e6	1.35e6	1.45e6	inactive
skl (GeneID 40016)	DRSC10050	1.22e6	1.32e6	1.31e6	1.43e6	inactive
Ect3 (GeneID 41457)	DRSC15462	1.93e6	1.97e6	1.37e6	1.47e6	inactive
CG14971 (GeneID 38429)	DRSC08430	1.36e6	1.51e6	1.12e6	1.12e6	inactive
tant (GeneID 44785)	DRSC11401	1.65e6	1.47e6	1.18e6	1.24e6	inactive
CG34273 (GeneID 5740836)	DRSC13041	1.41e6	1.62e6	9.99e5	1.17e6	inactive
Ankle2 (GeneID 32732)	DRSC20105	1.63e6	1.69e6	8.81e5	1.00e6	inactive
Ankle2 (GeneID 32732)	DRSC20106	1.52e6	1.49e6	1.05e6	1.16e6	inactive
GstD8 (GeneID 48341)	DRSC16689	1.53e6	1.63e6	1.21e6	1.33e6	inactive
CG13991 (GeneID 33868)	DRSC02323	1.71e6	1.78e6	1.20e6	1.35e6	inactive
Fili (GeneID 5740472)	DRSC03907	5.70e5		9.01e5		inactive
Fili (GeneID 5740472)	DRSC04132	1.55e6	1.67e6	1.34e6	4.06e5	inactive
Fili (GeneID 5740472)	DRSC04445	1.54e6	1.65e6	1.37e6	3.87e5	inactive
ERR (GeneID 38912)	DRSC10840	1.30e6	1.41e6	1.36e6	1.30e6	inactive

Sorted by “S2R+ cell number, rep 1” (high to low): some entries from above
gene knocked down	amplicon	Kc cell number, rep 1	Kc cell number, rep 2	S2R+ cell number, rep 1	S2R+ cell number, rep 2	Outcome
CG11694 (GeneID 40985)	DRSC14354	1.81e6	1.90e6	1.39e6	1.57e6	inactive
PGRP-SC1b (GeneID 35861)	DRSC07215	1.39e6	1.43e6	1.22e6	1.28e6	inactive
Gpo1 (GeneID 47611)	DRSC07128	1.37e6	1.41e6	1.10e6	1.16e6	inactive
Mybbp1A (GeneID 31010)	DRSC18788	5.21e5		8.59e5		inactive
